Data as given in PubChem BioAssay AID1259424 (University of Nebraska Medical Center, 2018)

Screen: 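Seek colon cancer survival genes behaving like KSR1, using a six-gene signature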 (primary screen)
System: human HCT116 colon cancer cells
Reagent: siRNA pool against human genes, 50 nM
Read-out: 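Log2 levels of six mRNAs (branched-DNA multiplex), adjusted by two reference genes and the non-targeting median, then scored against the average KSR1 knockdown pattern as Pearson r and euclidean distance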
Direction: mean correlation with KSR1 profile: higher = expression change more like KSR1 knockdown; mean distance from KSR1 profile: higher = expression change less like KSR1 knockdown
Here is one part, drawn at random, of about 14,000 deposited reagents. 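Higher correlation or smaller distance means closer resemblance to KSR1 loss; control wells, including KSR1 knockdowns, recur on many plates.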 Further read-outs or replicates are left out here. Reagent sequences are not shown. Not stated in the record: the time to read-out.

no.	target gene	mean correlation with KSR1 profile	mean distance from KSR1 profile
1	ELANE	-0.261	1.47
2	NTN3	-0.367	3.85
3	NPRL3	-0.414	2.88
4	GALNT1	-0.583	1.85
5	ATF7	0.26	2.34
6	ZNF385B	-0.154	2.15
7	HK2	0.144	4.7
8	GRHPR	0.536	1.41
9	HDAC1	-0.328	2.67
10	CDK3	0.902	1.64
11	H4C12	0.13	1.23
12	RHOV	-0.341	2.77
13	RNF113A	-0.391	2.25
14	SEC61A1	-0.0269	2.37
15	TLR6	-0.277	3.23
16	CNGA3	-0.167	1.93
17	PARD6A	-0.656	1.06
18	GNRH2	0.145	1.2
19	ITM2B	0.00159	1.32
20	METTL1	-0.583	6
21	RABEP2	0.479	1.81
22	MRPS26	-0.594	2.74
23	UPK3A	0.364	5.12
24	CAV1	0.152	1.44
25	LRRC37A4P	-0.394	1.24
26	TPRKB	-0.415	3.51
27	VGLL1	-0.595	3.19
28	HSFY1	0.141	2.23
29	NRG1	-0.284	1.93
30	ADPRHL1	-0.0875	2.67
31	UBE2Z	0.269	3.51
32	JAK3	0.386	2.54
33	RPS4X	-0.92	1.48

Records above whose target name starts with G or g (3):
target gene	mean correlation with KSR1 profile	mean distance from KSR1 profile
GALNT1	-0.583	1.85
GRHPR	0.536	1.41
GNRH2	0.145	1.2

Additional entries follow.
no.	target gene	mean correlation with KSR1 profile	mean distance from KSR1 profile
34	EFNB2	0.277	2.21
35	NPHS2	0.66	1.67
36	ACAT2	0.032	1.6
37	TNNT3	-0.04	1.92
38	ZNF184	-0.365	1.34
39	KNG1	0.146	2.96
40	BABAM2	0.402	2.3
41	PRH2	0.644	1.09
42	PRKAG2	-0.147	2.41
43	WDR45	-0.225	3.2
44	FGF5	-0.184	2.06
45	PMS1	0.000322	2.13
46	CST5	-0.0072	3.35
47	PRKAR2B	0.337	2.83
48	PEX26	-0.727	3.13
49	GIN1	-0.866	6.03
50	LMBRD1	0.561	2.16
